PubChem BioAssay AID1259254 | NCATS, 2017
This is a random part of about 59,000 reagents tested. Of all reagents, about 1,550 (2.6%) got an active call. 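G2 share is only a proxy for re-replication; each gene was hit by three separate siRNAs, and active genes were retested.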 The numbers tell different reagents against one gene apart. Not all columns of the deposit are shown. Not stated in the record: the amount of reagent.

Aim: 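Finding genes that stop cells copying their DNA twice in one cycle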 (primary screen)
Cells: human HCT116 colorectal cancer cells
Knock-down reagent: single siRNA against human genes
Duration: 3 days
Measured: 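Imaged Hoechst DNA stain sorts each cell into a cycle phase by DNA amount; per plate, G2 fraction set to 0% for non-targeting and 100% for GMNN siRNA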
Scale: G2 robust z-score: higher = more G2 cells, more excess DNA replication
Call rule: 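An siRNA counts as active if its G2 robust z-score lies at least 5 MADs above the screen median; here such calls match roughly 38% of GMNN control or more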

| gene | reagent | G2 robust z-score | Call |
| --- | --- | --- | --- |
| ADAD2 | 1 | -0.0118 | inactive |
| ADAD2 | 2 | -0.709 | inactive |
| ADAD2 | 3 | 1.12 | inactive |
| SH3BGRL2 | 1 | -0.943 | inactive |
| SH3BGRL2 | 2 | 1.18 | inactive |
| SH3BGRL2 | 3 | -0.179 | inactive |
| EPSTI1 | 1 | 2.98 | inactive |
| EPSTI1 | 2 | -0.745 | inactive |
| EPSTI1 | 3 | -0.67 | inactive |
| TRIP6 | 1 | -0.715 | inactive |
| TRIP6 | 2 | -1.16 | inactive |
| TRIP6 | 3 | -0.492 | inactive |
| SLC30A3 | 1 | 0.0357 | inactive |
| SLC30A3 | 2 | 0.739 | inactive |
| SLC30A3 | 3 | 3.48 | inactive |
| UGT2B4 | 1 | -0.794 | inactive |
| UGT2B4 | 2 | 5.02 | active |
| UGT2B4 | 3 | 0.369 | inactive |
| CCDC86 | 1 | -0.916 | inactive |
| CCDC86 | 2 | -0.0148 | inactive |
| CCDC86 | 3 | -0.162 | inactive |
| NACA2 | 1 | 4.2 | inactive |
| NACA2 | 2 | 0.8 | inactive |
| NACA2 | 3 | -0.907 | inactive |
| POLR2F | 1 | 2.23 | inactive |
| POLR2F | 2 | 0.611 | inactive |
| POLR2F | 3 | 2.98 | inactive |
| PAFAH1B2P2 | 1 | -0.714 | inactive |
| PAFAH1B2P2 | 2 | 0.0539 | inactive |
| PAFAH1B2P2 | 3 | 0.485 | inactive |
| PRSS22 | 1 | 0.253 | inactive |
| PRSS22 | 2 | 6.47 | active |
| PRSS22 | 3 | 6.24 | active |
| KCNJ14 | 1 | -0.715 | inactive |
| KCNJ14 | 2 | -1.13 | inactive |
| KCNJ14 | 3 | -0.306 | inactive |
| EML2 | 1 | -0.371 | inactive |
| EML2 | 2 | -0.681 | inactive |
| EML2 | 3 | 1.68 | inactive |
| TINCR | 1 | -0.645 | inactive |
| TINCR | 2 | 0.177 | inactive |
| TINCR | 3 | 0.359 | inactive |
| SSX1 | 1 | -0.129 | inactive |
| SSX1 | 2 | 0.294 | inactive |
| SSX1 | 3 | 4.75 | inactive |
| WDR27 | 1 | 1.37 | inactive |
| WDR27 | 2 | 7.17 | active |
| WDR27 | 3 | 0.583 | inactive |
| CDH13 | 1 | 6 | active |
| CDH13 | 2 | 0.975 | inactive |
| CDH13 | 3 | 3.74 | inactive |
| SLC26A6 | 1 | -0.949 | inactive |
| SLC26A6 | 2 | 0.413 | inactive |
| SLC26A6 | 3 | 3.32 | inactive |
| SLC35F3 | 1 | 0.402 | inactive |
| SLC35F3 | 2 | -0.55 | inactive |
| SLC35F3 | 3 | -0.924 | inactive |
| PRNT | 1 | 0.253 | inactive |
| PRNT | 2 | 3.8 | inactive |
| PRNT | 3 | 0.859 | inactive |
| TSHZ2 | 1 | 0.441 | inactive |
| TSHZ2 | 2 | -0.796 | inactive |
| TSHZ2 | 3 | -1.19 | inactive |
| ASAP1 | 1 | 0.565 | inactive |
| ASAP1 | 2 | 0.549 | inactive |
| ASAP1 | 3 | -0.647 | inactive |
| TAF11 | 1 | 2.35 | inactive |
| TAF11 | 2 | 0.358 | inactive |
| TAF11 | 3 | 0.0395 | inactive |
| ABHD2 | 1 | 2.22 | inactive |
| ABHD2 | 2 | 3.45 | inactive |
| ABHD2 | 3 | -0.532 | inactive |
| SERINC1 | 1 | 1.39 | inactive |
| SERINC1 | 2 | 2.87 | inactive |
| SERINC1 | 3 | -0.455 | inactive |
| OR56B1 | 1 | -0.977 | inactive |
| OR56B1 | 2 | 0.0163 | inactive |
| OR56B1 | 3 | -0.88 | inactive |
| CRISP3 | 1 | 2.73 | inactive |
| CRISP3 | 2 | -0.509 | inactive |
| CRISP3 | 3 | -0.00381 | inactive |
| CTNNAL1 | 1 | 2.88 | inactive |
| CTNNAL1 | 2 | -1.2 | inactive |
| CTNNAL1 | 3 | 0.681 | inactive |
| TARS3 | 1 | 0.442 | inactive |
| TARS3 | 2 | -0.401 | inactive |
| TARS3 | 3 | -0.528 | inactive |

Reprinted from the listing (6 entries):
| gene | reagent | G2 robust z-score | Call |
| --- | --- | --- | --- |
| UGT2B4 | 2 | 5.02 | active |
| UGT2B4 | 3 | 0.369 | inactive |
| CCDC86 | 1 | -0.916 | inactive |
| CCDC86 | 2 | -0.0148 | inactive |
| CCDC86 | 3 | -0.162 | inactive |
| NACA2 | 1 | 4.2 | inactive |
